In PubChem BioAssay AID248 (DTP/NCI, 2004) one finds T/C and survivor count data, which are given here for six compounds.

This experiment has as its system L1210 leukemia ip in BDF1 mice, survival T/C. Briefly: NCI In Vivo Anticancer Drug Screen. Data for tumor model L1210 Leukemia (intraperitoneal) in B6D2F1 (BDF1) mice. The following applies: T/C endpoint: mean survival time, higher T/C = longer survival.
Setting [1] is: dose: 50.0 mg/kg/injection, schedule: Q01DX009 (ip), vehicle: saline with Tween-80.
Setting [2] is: dose: 100.0 mg/kg/injection, schedule: Q01DX001 (ip), vehicle: saline.
The mark [3] stands for this setting: dose: 200.0 mg/kg/injection, schedule: Q01DX009 (ip), vehicle: saline.
The mark [4] stands for this setting: dose: 400.0 mg/kg/injection, schedule: Q01DX009 (ip), vehicle: saline.

The list does not hold the whole screen: it is rich in T/C values a quarter to a half above the control, in often repeated tests (any T/C) and in doses without a T/C. Further doses and runs are listed elsewhere. T/C gives the treated animals as a percentage of the vehicle group. Some entries give survivors of the animals treated and no T/C: the source holds a T/C of zero for them, seemingly a mark for toxic or unscored doses. Some survivor counts are full or nearly so, which does not show that the dose was tolerated: survival well below the control is almost never listed, so the zero probably covers shortened survival too. Counts of survivors are from the toxicity check (mostly the fifth day) where no day follows; animals may have died later. Schedules are NCI's codes, taken here to give the interval after Q, in days (D) or hours (H), and the number of doses after X. Some structures stand for samples that the source files as different forms (salt, stereo form or complex); doses refer to the form tested. Some entries hold several experiments; the values are given in rising order. For survival time, the PubChem record calls one and a half times the control and up active, and a quarter to a half above the control has no call in these data; cut-offs in other NCI protocols can differ. Some T/C values are followed by the survivors on the day toxicity was checked, most often the fifth; where none is given, no animal had died by that day.

Consider `C[n+]1ccc(Nc2ccc(NC(=O)c3ccc(Nc4cc[n+](C)c5ccc(N)cc45)cc3N)cc2)cc1`, for which the T/C is 139 % of control (dose: 0.5 mg/kg/injection, schedule: Q03HX024 (ip), vehicle: water); 131 and 133 % of control (dose: 1.0 mg/kg/injection, schedule: Q01DX009 (ip), vehicle: water, evaluated on day 30); 129 % of control (dose: 1.0 mg/kg/injection, schedule: Q01DX009 (ip), vehicle: water, evaluated on day 60); 127 % of control (dose: 1.0 mg/kg/injection, schedule: Q03HX008 (ip), vehicle: water); 133 % of control [7 of 8 alive] (dose: 2.0 mg/kg/injection, schedule: Q01DX009 (sc), vehicle: water); 125 % of control (dose: 2.0 mg/kg/injection, schedule: Q04DX003 (ip), vehicle: water). For the same compound, the T/C was 129 % of control (dose: 3.13 mg/kg/injection, schedule: Q01DX009 (ip), vehicle: saline); 133 % of control (dose: 4.0 mg/kg/injection, schedule: Q04DX003 (ip), vehicle: water, evaluated on day 30); 138 % of control (dose: 4.0 mg/kg/injection, schedule: Q04DX003 (ip), vehicle: water, evaluated on day 60); 144 % of control (dose: 6.25 mg/kg/injection, schedule: Q01DX001 (ip), vehicle: saline with Tween-80); 257, 308, 329, 336 % of control (dose: 6.25 mg/kg/injection, schedule: Q01DX009 (ip), vehicle: saline with Tween-80); 135 % of control (dose: 6.25 mg/kg/injection, schedule: Q04DX002 (ip), vehicle: saline with Tween-80). Further, the T/C (dose: 6.25 mg/kg/injection, schedule: Q04DX003 (ip), vehicle: saline with Tween-80) was 141 % of control; the T/C (dose: 6.25 mg/kg/injection, schedule: Q04DX003 (ip), vehicle: saline) was 144 % of control; the T/C (dose: 8.0 mg/kg/injection, schedule: Q01DX002 (ip), vehicle: water) is 127 % of control; the T/C (dose: 8.0 mg/kg/injection, schedule: Q04DX003 (ip), vehicle: water) was 135 % of control; the T/C (dose: 12.5 mg/kg/injection, schedule: Q01DX001 (ip), vehicle: saline with Tween-80) was 146 % of control; the T/C (dose: 12.5 mg/kg/injection, schedule: Q01DX009 (ip), vehicle: saline with Tween-80) was 294, 297, 322, 336 % of control. Moreover, the T/C is, setting by setting: (dose: 12.5 mg/kg/injection, schedule: Q04DX002 (ip), vehicle: saline with Tween-80) 140, 159, 165, 220 % of control; (dose: 16.0 mg/kg/injection, schedule: Q01DX001 (ip), vehicle: water) 133 % of control [8 of 10 alive]; (dose: 25.0 mg/kg/injection, schedule: Q01DX009 (ip), vehicle: saline with Tween-80) 114 [5 of 6 alive], 117 [2 of 3 alive], 275 [5 of 6 alive], 336 % of control; (dose: 25.0 mg/kg/injection, schedule: Q01DX009 (ip), vehicle: saline) 143 % of control; (dose: 25.0 mg/kg/injection, schedule: Q04DX002 (ip), vehicle: saline with Tween-80) 101, 226, 245, 300 % of control; under setting [1], 125 and 209 % of control. For the same compound, the T/C (dose: 50.0 mg/kg/injection, schedule: Q04DX002 (ip), vehicle: saline with Tween-80) is 90, 104, 270, 322 % of control and the T/C under setting [2] was 146 % of control. Besides, the survivor count (dose: 4.0 mg/kg/injection, schedule: Q01DX005 (iv), vehicle: water) was 2 of 8 and 3 of 10; the survivor count (dose: 8.0 mg/kg/injection, schedule: Q03HX016 (ip), vehicle: water) is 4 of 10; the survivor count (dose: 8.0 mg/kg/injection, schedule: Q04DX003 (iv), vehicle: water) is on record as 0 of 10; the survivor count (dose: 16.0 mg/kg/injection, schedule: Q01DX009 (ip), vehicle: water) was 0 of 10, 5 of 10, 6 of 10; the survivor count (dose: 16.0 mg/kg/injection, schedule: Q03HX008 (ip), vehicle: water) was 3 of 10; the survivor count (dose: 16.0 mg/kg/injection, schedule: Q03HX016 (ip), vehicle: water) is reported as 6 of 10. Also, the survivor count is 7 of 10 (dose: 16.0 mg/kg/injection, schedule: Q03HX024 (ip), vehicle: water); 6 of 10 (dose: 32.0 mg/kg/injection, schedule: Q01DX001 (ip), vehicle: water); 0 of 10 (dose: 32.0 mg/kg/injection, schedule: Q01DX005 (ip), vehicle: water); 0 of 10 and 1 of 10 (dose: 32.0 mg/kg/injection, schedule: Q01DX009 (ip), vehicle: water); 3 of 10, 4 of 10, 5 of 10 (dose: 32.0 mg/kg/injection, schedule: Q04DX003 (ip), vehicle: water); 3 of 10 (dose: 32.0 mg/kg/injection, schedule: Q08DX002 (ip), vehicle: water). Moreover, the survivor count by setting is: (dose: 50.0 mg/kg/injection, schedule: Q01DX001 (ip), vehicle: saline with Tween-80) 3 of 6; under setting [1], 3 of 3 and 6 of 6; (dose: 50.0 mg/kg/injection, schedule: Q01DX009 (ip), vehicle: saline) 1 of 6; (dose: 50.0 mg/kg/injection, schedule: Q04DX003 (ip), vehicle: saline with Tween-80) 3 of 6; (dose: 64.0 mg/kg/injection, schedule: Q01DX001 (ip), vehicle: water) 0 of 10; (dose: 64.0 mg/kg/injection, schedule: Q01DX005 (ip), vehicle: water) 0 of 10. In addition, the survivor count runs as follows: (dose: 64.0 mg/kg/injection, schedule: Q01DX009 (ip), vehicle: water) 0 of 10; (dose: 64.0 mg/kg/injection, schedule: Q04DX003 (ip), vehicle: water) 3 of 10; (dose: 64.0 mg/kg/injection, schedule: Q08DX002 (ip), vehicle: water) 0 of 10; (dose: 100.0 mg/kg/injection, schedule: Q01DX009 (ip), vehicle: Klucel (hydroxypropylcellulose) (HPC)) 0 of 6; (dose: 100.0 mg/kg/injection, schedule: Q04DX002 (ip), vehicle: saline with Tween-80) 1 of 3 and 2 of 6; (dose: 100.0 mg/kg/injection, schedule: Q04DX003 (ip), vehicle: saline) 2 of 6 and 4 of 6. The survivor count reads like this: (dose: 128.0 mg/kg/injection, schedule: Q01DX001 (ip), vehicle: water) 0 of 10; (dose: 128.0 mg/kg/injection, schedule: Q04DX003 (ip), vehicle: water) 0 of 10; (dose: 128.0 mg/kg/injection, schedule: Q08DX002 (ip), vehicle: water) 0 of 10; (dose: 200.0 mg/kg/injection, schedule: Q04DX002 (ip), vehicle: saline with Tween-80) 0 of 6 and 1 of 3; (dose: 200.0 mg/kg/injection, schedule: Q04DX003 (ip), vehicle: saline) 1 of 6; (dose: 400.0 mg/kg/injection, schedule: Q04DX002 (ip), vehicle: saline with Tween-80) 0 of 3 and 0 of 6. Besides, the survivor count (dose: 400.0 mg/kg/injection, schedule: Q04DX003 (ip), vehicle: saline) is listed as 1 of 6.
For the compound `NCS(=O)(=O)O`, the survivor count reads like this: (dose: 100.0 mg/kg/injection, schedule: Q01DX001 (ip), vehicle: saline with Tween-80) 0 of 3; (dose: 100.0 mg/kg/injection, schedule: Q01DX009 (ip), vehicle: saline) 6 of 6; under setting [3], 6 of 6; under setting [4], 6 of 6.
As for `c1ccc(Cc2ccncc2)cc1`, the survivor count (dose: 400.0 mg/kg/injection, schedule: Q01DX009 (ip), vehicle: saline with Tween-80) was 0 of 6.
Consider `O=C(COC(=O)c1ccccc1C(=O)c1ccccc1O)c1ccc(-c2ccccc2)cc1`, for which the survivor count under setting [2] is given as 4 of 4.
Consider `NC(=O)Nc1n[nH]c(-c2ccccc2)n1`, for which the survivor count is 6 of 6 under setting [3] and 6 of 6 under setting [4].
`OCc1cc2ccccc2cc1F`: for the setting “dose: 400.0 mg/kg/injection, schedule: Q04DX003 (ip), vehicle: acetone”, the survivor count is listed as 2 of 6.
